From US20260055188A1
Results are given in words; binding and its absence hold for the method and conditions named. Some results given as binding are weak or reduced against the parent protein; the word gives no strength.

The chains behind the UniProt entries cited, without tags or fusion partners. Where a name states a change or a piece, a line headed by the entry shows the natural chain unless it says otherwise. A line that says so, or that is headed by a name, gives the form on record, which may keep a tag or linker.
Human-B7H3 His (manufacturer: Acro, CAT: TB73-H52E2) (Q5ZPR3, form named): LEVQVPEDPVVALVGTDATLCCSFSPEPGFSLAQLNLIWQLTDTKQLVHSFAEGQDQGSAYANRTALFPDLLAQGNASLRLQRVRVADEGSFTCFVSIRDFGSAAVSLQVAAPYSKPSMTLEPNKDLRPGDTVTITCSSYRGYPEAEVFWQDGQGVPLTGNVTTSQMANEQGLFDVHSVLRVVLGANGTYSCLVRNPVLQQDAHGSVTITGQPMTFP

Molecular target: Human-B7H3 His (manufacturer: Acro, CAT: TB73-H52E2) (human) (UniProt Q5ZPR3)
Assay: ELISA: Human-B7H3 His coated (0.3 µg/mL), antibody titrated, goat anti-human IgG Fc detection, OD450 (Example 3)

binding: binds
B1: Positive Control (antibody, V domains shown)
VH: QVQLQQSGAELVKPGASVKLSCKASGYTFTNYDINWVRQRPEQGLEWIGWIFPGDGSTQYNEKFKGKATLTTDTSSSTAYMQLSRLTSEDSAVYFCARQTTATWFAYWGQGTLVTVSA
VL: DIVMTQSPATLSVTPGDRVSLSCRASQSISDYLHWYQQKSHESPRLLIKYASQSISGIPSRFSGSGSGSDFTLSINSVEPEDVGVYYCQNGHSFPLTFGAGTKLELK
